The values that follow come from publication PMC6081450.

Chains of the proteins cited; added tags and fusions are not shown.
UniProt P03372: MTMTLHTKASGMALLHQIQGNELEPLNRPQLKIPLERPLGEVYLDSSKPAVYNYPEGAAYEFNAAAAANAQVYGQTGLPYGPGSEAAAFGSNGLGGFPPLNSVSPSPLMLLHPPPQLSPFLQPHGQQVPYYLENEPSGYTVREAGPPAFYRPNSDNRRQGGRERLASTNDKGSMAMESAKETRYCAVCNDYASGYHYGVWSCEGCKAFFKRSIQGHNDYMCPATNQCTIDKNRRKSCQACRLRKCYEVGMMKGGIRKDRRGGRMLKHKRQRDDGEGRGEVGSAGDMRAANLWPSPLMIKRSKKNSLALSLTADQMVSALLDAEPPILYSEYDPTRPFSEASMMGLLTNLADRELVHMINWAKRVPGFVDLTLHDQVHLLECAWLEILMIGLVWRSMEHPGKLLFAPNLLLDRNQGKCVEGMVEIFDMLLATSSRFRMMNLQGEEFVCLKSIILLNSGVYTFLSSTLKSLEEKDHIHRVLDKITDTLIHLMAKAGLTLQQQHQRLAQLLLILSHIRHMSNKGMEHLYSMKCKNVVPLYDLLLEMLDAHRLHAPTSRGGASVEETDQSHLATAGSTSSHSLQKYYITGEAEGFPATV
UniProt Q15648: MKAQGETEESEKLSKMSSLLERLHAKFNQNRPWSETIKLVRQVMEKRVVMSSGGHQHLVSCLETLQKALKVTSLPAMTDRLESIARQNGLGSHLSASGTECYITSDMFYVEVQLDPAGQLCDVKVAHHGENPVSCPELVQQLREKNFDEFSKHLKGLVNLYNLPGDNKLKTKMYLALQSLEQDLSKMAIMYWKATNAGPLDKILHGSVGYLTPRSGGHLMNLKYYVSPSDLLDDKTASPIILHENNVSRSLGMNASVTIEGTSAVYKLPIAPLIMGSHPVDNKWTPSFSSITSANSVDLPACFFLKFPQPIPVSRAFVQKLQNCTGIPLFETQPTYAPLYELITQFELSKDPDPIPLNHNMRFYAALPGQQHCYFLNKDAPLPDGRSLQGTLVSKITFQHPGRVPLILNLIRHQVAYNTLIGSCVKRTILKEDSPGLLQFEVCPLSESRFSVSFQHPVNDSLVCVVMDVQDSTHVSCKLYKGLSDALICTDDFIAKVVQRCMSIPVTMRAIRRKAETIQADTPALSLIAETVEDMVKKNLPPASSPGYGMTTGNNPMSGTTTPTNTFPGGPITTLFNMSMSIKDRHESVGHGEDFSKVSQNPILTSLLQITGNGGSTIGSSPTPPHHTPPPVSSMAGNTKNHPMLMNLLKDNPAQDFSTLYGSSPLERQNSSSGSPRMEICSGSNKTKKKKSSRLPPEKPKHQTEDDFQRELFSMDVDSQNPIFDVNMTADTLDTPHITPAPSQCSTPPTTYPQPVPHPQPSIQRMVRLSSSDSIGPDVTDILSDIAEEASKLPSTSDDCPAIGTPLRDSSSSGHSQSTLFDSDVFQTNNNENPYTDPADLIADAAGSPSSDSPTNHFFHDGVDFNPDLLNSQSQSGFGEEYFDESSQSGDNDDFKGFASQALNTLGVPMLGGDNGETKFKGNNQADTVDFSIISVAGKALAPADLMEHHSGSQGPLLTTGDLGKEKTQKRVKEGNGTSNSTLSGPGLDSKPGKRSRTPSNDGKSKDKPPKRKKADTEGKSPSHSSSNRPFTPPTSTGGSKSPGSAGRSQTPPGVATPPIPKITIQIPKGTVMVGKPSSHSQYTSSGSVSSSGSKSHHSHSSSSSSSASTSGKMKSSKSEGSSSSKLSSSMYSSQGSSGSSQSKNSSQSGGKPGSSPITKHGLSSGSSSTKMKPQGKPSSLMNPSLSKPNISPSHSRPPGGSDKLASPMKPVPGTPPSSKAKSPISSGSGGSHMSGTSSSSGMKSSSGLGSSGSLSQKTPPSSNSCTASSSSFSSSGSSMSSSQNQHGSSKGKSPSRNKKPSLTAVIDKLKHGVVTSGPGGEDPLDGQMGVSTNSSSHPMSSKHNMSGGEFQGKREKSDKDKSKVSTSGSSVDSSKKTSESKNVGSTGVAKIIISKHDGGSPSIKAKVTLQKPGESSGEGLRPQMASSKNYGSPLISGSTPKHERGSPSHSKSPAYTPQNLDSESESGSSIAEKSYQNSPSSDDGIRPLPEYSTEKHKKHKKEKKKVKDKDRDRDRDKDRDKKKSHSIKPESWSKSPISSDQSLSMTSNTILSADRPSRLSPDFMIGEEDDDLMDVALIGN

These are yes or no findings as the source states them, for the method shown. Binding seen in cells or lysates may run through a third protein. Some results given as binding are weak or reduced against the parent protein; the word gives no strength.

The target of this assay is estrogen receptor-alpha (ER-α) (human (endogenous in MCF7)) (UniProt P03372). Put plainly: co-IP; MCF7 cells starved for estrogen for 3-4 days, then estrogen (0-10 nM) for 45 min; cells crosslinked and lysed in RIPA buffer; ER-α antibody with protein A-sepharose beads for pull down, western blot with MED1-specific antibody.

For the substance “Mediator complex subunit 1 (MED1) (from UniProt Q15648 1-1581)”, the binding result is recorded as “binds”.
